The source of these data is the supplement of paper PMC12819154, “High-throughput peptide-centric local stability assay extends protein–ligand identification to membrane proteins, tissues and bacteria” (Nature Structural & Molecular Biology, 2025).

Protein sequences, listed by entry. Tags and fused reporters are not part of them. Lines headed by an entry give the natural chain unless they say otherwise; changes in a name come on top.
UniProt Q9CQX8: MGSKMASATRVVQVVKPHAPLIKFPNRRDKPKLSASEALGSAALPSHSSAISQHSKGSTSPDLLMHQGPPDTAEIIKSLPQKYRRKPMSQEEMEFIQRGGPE
UniProt Q99LI9: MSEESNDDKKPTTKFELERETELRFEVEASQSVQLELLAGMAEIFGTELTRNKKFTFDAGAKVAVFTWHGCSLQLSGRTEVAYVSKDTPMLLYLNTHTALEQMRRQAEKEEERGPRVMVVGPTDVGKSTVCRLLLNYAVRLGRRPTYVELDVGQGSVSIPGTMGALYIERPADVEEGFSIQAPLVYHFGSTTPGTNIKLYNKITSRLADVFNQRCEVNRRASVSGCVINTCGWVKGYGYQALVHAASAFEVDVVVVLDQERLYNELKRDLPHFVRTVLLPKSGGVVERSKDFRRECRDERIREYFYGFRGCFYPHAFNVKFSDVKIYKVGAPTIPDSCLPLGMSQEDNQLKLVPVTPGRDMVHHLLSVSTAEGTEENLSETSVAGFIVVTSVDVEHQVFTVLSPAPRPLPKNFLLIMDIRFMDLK
UniProt Q9CQW9, whole entry: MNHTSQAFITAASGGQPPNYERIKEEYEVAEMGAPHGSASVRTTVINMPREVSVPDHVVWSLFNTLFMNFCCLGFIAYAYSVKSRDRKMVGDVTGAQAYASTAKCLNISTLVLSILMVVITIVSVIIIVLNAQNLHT
UniProt Q99KF1: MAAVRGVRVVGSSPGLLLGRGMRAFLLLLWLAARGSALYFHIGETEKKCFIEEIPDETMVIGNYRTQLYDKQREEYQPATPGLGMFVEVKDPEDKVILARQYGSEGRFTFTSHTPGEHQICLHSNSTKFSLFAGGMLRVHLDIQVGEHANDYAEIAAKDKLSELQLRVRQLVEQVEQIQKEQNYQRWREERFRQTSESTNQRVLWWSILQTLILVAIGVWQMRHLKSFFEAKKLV
UniProt Q9CPZ8: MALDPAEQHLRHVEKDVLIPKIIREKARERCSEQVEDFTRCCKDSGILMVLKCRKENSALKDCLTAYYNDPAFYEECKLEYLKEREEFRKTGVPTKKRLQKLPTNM
UniProt Q9CQX5: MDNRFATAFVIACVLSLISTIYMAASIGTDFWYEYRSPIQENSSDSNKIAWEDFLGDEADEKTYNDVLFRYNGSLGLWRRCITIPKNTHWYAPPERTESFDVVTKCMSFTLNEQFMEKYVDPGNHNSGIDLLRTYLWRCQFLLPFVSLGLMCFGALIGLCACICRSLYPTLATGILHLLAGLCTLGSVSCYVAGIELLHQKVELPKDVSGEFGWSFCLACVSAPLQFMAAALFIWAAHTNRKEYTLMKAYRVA
UniProt Q9CX98: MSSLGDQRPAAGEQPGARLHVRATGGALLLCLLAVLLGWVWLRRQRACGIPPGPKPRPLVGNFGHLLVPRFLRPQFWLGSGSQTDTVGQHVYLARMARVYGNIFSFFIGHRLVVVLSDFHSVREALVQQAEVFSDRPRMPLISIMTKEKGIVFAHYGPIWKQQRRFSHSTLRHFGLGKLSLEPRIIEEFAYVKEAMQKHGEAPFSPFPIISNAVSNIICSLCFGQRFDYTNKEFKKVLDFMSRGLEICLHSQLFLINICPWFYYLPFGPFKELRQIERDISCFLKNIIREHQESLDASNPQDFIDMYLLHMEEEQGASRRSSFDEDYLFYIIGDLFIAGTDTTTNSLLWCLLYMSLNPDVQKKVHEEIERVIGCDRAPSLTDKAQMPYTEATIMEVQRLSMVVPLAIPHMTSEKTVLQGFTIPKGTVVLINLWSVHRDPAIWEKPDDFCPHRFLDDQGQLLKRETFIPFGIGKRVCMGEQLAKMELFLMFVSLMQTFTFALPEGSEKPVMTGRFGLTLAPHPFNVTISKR
UniProt Q9CQM9: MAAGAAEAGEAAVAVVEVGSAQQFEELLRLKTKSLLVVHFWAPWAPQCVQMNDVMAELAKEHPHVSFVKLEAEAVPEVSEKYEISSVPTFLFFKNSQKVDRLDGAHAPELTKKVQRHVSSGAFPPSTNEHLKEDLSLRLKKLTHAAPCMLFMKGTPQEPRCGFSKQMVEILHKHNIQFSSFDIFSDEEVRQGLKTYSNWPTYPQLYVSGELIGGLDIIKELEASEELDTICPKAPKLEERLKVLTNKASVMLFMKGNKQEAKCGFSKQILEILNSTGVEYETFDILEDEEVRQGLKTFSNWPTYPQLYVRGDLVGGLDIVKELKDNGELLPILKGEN
UniProt Q99KW3: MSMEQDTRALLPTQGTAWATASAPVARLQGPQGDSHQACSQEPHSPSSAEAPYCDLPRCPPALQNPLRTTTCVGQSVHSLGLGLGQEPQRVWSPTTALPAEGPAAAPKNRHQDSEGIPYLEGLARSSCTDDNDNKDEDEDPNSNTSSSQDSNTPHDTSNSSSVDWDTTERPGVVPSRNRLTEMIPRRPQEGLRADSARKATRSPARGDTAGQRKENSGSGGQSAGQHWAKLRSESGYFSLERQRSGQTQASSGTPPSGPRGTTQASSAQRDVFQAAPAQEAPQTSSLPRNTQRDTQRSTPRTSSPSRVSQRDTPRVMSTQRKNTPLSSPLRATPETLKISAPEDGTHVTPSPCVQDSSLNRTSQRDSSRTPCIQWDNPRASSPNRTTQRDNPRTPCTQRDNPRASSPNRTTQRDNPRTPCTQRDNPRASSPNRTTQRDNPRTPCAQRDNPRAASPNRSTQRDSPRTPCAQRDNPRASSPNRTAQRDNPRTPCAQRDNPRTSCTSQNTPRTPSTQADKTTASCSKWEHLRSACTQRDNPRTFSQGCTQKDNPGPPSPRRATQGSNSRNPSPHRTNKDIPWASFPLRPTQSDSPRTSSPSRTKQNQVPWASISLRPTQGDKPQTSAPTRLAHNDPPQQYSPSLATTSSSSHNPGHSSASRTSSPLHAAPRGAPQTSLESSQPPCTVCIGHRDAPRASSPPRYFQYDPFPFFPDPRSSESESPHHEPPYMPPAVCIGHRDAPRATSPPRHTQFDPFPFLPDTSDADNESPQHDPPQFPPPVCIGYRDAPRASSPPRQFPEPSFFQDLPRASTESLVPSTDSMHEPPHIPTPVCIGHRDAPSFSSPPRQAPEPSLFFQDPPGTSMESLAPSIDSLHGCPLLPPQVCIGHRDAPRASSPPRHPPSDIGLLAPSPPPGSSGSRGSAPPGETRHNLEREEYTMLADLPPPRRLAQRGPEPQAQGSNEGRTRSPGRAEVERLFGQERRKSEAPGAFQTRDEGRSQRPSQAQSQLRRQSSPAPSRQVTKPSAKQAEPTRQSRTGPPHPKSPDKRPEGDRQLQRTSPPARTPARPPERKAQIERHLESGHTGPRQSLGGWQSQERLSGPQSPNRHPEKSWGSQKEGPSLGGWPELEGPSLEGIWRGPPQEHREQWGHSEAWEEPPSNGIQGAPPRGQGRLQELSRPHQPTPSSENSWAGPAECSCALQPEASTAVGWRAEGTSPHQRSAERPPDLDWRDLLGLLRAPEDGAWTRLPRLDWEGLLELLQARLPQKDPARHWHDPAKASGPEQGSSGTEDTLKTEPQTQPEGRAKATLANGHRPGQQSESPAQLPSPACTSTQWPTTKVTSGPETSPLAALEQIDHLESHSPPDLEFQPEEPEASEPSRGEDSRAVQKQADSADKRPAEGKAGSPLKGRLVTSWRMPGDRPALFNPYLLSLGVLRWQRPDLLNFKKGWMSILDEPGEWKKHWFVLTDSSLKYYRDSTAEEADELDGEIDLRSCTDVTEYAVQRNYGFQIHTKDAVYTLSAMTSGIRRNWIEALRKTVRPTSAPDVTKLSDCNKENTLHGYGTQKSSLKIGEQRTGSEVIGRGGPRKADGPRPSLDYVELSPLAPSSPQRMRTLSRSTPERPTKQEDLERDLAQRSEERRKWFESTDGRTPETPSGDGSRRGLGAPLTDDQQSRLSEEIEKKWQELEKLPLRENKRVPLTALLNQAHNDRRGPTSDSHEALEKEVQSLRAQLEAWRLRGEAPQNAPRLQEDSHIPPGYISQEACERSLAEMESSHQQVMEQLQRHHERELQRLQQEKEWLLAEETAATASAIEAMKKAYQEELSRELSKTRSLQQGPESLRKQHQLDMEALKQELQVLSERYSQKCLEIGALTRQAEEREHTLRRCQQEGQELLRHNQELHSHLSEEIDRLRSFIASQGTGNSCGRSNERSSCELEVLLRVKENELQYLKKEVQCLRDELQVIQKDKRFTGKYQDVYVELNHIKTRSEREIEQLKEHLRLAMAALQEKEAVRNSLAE
UniProt Q99L04: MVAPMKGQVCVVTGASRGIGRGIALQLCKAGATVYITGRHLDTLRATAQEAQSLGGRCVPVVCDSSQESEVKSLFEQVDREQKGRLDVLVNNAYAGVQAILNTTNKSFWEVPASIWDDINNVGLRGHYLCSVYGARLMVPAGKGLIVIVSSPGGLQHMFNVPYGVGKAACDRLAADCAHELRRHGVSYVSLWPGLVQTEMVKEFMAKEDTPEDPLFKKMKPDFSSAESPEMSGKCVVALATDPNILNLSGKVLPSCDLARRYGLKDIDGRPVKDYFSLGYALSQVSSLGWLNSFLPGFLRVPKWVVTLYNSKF
UniProt Q99KR7: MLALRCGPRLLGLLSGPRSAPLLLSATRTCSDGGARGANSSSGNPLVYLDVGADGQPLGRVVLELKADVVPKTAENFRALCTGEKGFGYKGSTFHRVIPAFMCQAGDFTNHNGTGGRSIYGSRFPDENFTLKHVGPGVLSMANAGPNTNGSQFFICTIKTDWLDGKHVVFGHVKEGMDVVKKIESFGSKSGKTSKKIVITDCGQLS
UniProt Q9CPV4: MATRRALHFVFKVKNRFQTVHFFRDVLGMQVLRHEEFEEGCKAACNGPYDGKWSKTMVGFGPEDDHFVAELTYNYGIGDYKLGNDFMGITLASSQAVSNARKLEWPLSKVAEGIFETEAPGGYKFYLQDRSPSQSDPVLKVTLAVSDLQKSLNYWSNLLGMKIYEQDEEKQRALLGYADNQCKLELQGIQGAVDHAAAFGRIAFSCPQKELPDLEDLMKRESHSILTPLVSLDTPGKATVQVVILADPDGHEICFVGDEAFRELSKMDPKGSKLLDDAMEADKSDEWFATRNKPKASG
UniProt Q9CQZ6: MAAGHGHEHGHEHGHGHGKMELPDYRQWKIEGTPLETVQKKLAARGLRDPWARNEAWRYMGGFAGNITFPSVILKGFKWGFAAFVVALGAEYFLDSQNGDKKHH
UniProt Q99LY9: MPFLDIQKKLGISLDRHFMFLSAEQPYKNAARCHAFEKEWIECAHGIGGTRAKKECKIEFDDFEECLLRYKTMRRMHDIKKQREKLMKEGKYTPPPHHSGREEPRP
UniProt Q9CQI3, whole entry: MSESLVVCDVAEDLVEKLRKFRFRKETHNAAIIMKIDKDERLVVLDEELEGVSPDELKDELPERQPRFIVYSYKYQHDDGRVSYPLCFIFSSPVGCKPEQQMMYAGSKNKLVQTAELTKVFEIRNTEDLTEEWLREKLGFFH
UniProt Q99L88: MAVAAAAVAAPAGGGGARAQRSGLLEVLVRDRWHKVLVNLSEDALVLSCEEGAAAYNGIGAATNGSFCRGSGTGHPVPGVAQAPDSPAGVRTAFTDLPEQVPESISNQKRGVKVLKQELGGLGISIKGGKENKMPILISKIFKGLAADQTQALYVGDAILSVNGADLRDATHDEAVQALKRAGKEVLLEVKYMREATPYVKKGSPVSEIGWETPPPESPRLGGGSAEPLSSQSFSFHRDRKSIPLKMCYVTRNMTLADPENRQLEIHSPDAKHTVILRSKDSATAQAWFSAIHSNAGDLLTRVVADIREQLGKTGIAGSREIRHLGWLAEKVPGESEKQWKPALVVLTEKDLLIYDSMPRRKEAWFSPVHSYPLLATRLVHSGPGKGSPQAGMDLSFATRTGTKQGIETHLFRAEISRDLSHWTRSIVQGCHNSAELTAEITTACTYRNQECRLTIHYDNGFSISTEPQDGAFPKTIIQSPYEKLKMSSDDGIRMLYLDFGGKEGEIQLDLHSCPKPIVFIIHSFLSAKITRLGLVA
UniProt Q9CQR6: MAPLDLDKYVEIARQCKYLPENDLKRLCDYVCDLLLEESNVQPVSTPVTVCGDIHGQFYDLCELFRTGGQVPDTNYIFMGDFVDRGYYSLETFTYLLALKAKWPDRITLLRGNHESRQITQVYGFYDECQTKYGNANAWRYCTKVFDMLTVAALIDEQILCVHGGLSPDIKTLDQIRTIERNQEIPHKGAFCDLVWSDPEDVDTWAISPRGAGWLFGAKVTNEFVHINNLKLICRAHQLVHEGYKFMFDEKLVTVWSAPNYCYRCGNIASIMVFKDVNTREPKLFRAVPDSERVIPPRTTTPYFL
UniProt Q9CQC7: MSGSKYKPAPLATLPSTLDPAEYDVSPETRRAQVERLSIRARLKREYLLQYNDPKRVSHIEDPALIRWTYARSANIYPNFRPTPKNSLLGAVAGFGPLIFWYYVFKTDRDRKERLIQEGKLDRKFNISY
UniProt Q9CWS0: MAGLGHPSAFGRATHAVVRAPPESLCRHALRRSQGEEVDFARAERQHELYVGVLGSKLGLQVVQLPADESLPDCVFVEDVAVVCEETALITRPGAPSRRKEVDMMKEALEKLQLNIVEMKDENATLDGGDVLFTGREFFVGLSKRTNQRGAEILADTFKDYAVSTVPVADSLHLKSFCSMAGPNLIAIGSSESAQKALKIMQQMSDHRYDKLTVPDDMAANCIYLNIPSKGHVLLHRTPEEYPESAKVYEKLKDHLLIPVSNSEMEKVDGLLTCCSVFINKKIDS

This is one part of the list. Most values lie at the level of the controls, where differences are scatter.

Compound in this test: CN[C@@H]1C[C@H]2O[C@@](C)([C@@H]1OC)n1c3ccccc3c3c4c(c5c6ccccc6n2c5c31)C(=O)NC4 [staurosporine]
The experiment in a line: log2 fold change of pooled soluble protein (PISA), ligand vs vehicle (log2 ratio); higher = more thermally stabilized. Particulars: ligand concentration: 20 uM; assay format: PISA pool 52.9/55.5/58.6 C.
With UniProt Q9CQX8, the “log2 fold change of pooled soluble protein” value (“log2 fold change” below) is -0.314.

For the target UniProt Q99LI9, the “log2 fold change” value turned out to be 0.084.

Take UniProt Q99LU0: the “log2 fold change” value was -0.153.

For the target UniProt Q9CQW9, the “log2 fold change” value is -0.399.

On to UniProt Q9CQ92, for which the “log2 fold change” value is -0.263.

Regarding UniProt Q99KG3, the “log2 fold change” value is -0.0105.

Take UniProt Q99KP3: the “log2 fold change” value worked out at 0.0505.

On to UniProt Q99PL5, for which the “log2 fold change” value was -0.0494.

UniProt Q99JX3: the “log2 fold change” value was found to be 0.106.

In the case of UniProt Q9BCZ4, the “log2 fold change” value is -0.17.

For the target UniProt Q99KF1, the “log2 fold change” value is -0.00609.

As for UniProt Q9CQ79, the “log2 fold change” value is -0.0597.

Q9CPZ6;Q9CQZ0: the “log2 fold change” value is -0.143.

On to UniProt Q9CPZ8, for which the “log2 fold change” value is -0.0495.

UniProt Q99KB8: the “log2 fold change” value is -0.0266.

With UniProt Q9CQX5, the “log2 fold change” value turned out to be 0.00753.

Regarding UniProt Q9CX98, the “log2 fold change” value is 0.043.

As for UniProt Q9CQM9, the “log2 fold change” value is -0.0948.

UniProt Q99JY9: the “log2 fold change” value turned out to be 0.00727.

For the target UniProt Q99KW3, the “log2 fold change” value is -0.0107.

Take UniProt Q99L04: the “log2 fold change” value is -0.163.

With UniProt Q99KR7, the “log2 fold change” value is 0.127.

Turning to UniProt Q9CPV4, the “log2 fold change” value is -0.0533.

On to UniProt Q9CQZ6, for which the “log2 fold change” value was -0.0397.

Regarding UniProt Q99KV1, the “log2 fold change” value came to 0.0741.

Turning to UniProt Q99M07, the “log2 fold change” value was -0.039.

Take UniProt Q99N91: the “log2 fold change” value came out at 0.0273.

Regarding UniProt Q99LY9, the “log2 fold change” value is 0.00565.

As to UniProt Q9CR86, the “log2 fold change” value turned out to be 0.132.

Turning to UniProt Q9CQI3, the “log2 fold change” value was -0.223.

For UniProt Q99L88, the “log2 fold change” value is 0.0602.

UniProt Q99N42: the “log2 fold change” value was -0.0173.

Take UniProt Q9CQR6: the “log2 fold change” value turned out to be 0.297.

For UniProt Q9CQC7, the “log2 fold change” value is -0.0696.

Regarding UniProt Q9CWS0, the “log2 fold change” value is -0.0186.

Consider UniProt Q99PT1, for which the “log2 fold change” value is -0.178.
